Reference: paper PMC11379392
These are yes or no findings as the source states them, for the method shown. In cells and extracts the contact can be indirect.

Chains of the proteins cited; added tags and fusions are not shown.
UniProt Q2HR95: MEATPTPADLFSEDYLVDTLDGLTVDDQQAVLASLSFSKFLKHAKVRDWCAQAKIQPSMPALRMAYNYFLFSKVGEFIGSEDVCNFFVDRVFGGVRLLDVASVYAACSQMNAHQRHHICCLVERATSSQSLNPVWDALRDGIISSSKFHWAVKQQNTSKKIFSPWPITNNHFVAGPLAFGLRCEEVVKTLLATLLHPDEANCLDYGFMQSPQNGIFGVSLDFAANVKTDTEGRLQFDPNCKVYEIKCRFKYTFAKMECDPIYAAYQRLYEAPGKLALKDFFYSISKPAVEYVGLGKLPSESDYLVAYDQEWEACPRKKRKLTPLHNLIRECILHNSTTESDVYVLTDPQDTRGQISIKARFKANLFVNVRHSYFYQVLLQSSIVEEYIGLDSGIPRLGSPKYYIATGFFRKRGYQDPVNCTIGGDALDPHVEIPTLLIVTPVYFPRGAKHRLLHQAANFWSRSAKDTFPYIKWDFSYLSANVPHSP
UniProt Q86WV6: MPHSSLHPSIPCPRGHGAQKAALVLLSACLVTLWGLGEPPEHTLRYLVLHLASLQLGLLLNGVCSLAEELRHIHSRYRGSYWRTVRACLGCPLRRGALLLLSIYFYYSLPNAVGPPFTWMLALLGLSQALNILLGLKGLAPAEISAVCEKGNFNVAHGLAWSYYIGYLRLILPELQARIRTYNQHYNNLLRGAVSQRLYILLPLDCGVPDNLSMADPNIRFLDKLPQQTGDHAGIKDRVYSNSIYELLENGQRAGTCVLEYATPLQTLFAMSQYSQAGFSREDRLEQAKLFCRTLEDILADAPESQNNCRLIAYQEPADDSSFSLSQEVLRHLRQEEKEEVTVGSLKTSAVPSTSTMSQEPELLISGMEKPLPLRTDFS

Target: STREP-ORF37 (KSHV ORF37, from pCDNA4.TO-ORF37-2xCSTREP) (Kaposi's sarcoma-associated herpesvirus (KSHV)) (UniProt Q2HR95)
Test: co-IP; HEK293T cells co-transfected with HA-STING and STREP-tagged ORFs, 48 h; lysates immunoprecipitated with STREP antibody and protein A/G beads; blots with HA or STREP antibodies

HA-STING (from UniProt Q86WV6 1-379)
binding: no binding
